The nature of the assay: qHTS Assay for Lipid Storage Modulators in Drosophila S3 Cells.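 As to cell number change: cells counted by Cell Tracker Red CMTPX staining in the red channel.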 The conditions noted are these: BODIPY lipid droplet fluorescence, 18-24 h; for cell number change: measured here: cell count max response, cells fed with added oleic acid. A digest of the protocol: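 Drosophila S3 cells loaded with oleic acid (400 uM, as added) and compounds at several concentrations; lipid droplets imaged by 488-nm laser-scanning cytometry, 500–530 nm intensity and object ratio to cell channel. Percent activity normalized to 20 uM Triacsin C.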
Background: Quantitative high-throughput screening tests each substance at several concentrations.

Where [1] appears, read: measured here: lipid fluorescence (Fed channel) AC50, cells fed with added oleic acid.
Where [2] appears, read: measured here: cell number channel AC50, cells fed with added oleic acid.

Some of the results follow. Further columns of the screen follow, without active or inactive calls. The list favours compounds with an active or inconclusive main result. Words in brackets tell the shape of the fitted curve; partial curves, single points and poor fits give uncertain potencies.

Usually AC50 stands for the concentration giving half of the maximal activity seen. Low values mean activity at low concentration, high ones activity only at high concentration. Turning to `O=C(Nc1cccc(C(=O)N2CCCCC2)c1)c1ccc(Cl)cc1`, the cell number change amounted to 24.3%. Besides, the AC50 under setting [1] is 6.51 µM [rising, single point].

Consider `CN(C)c1ccc(N=C/C=C2/N(C)c3ccccc3C2(C)C)cc1`, for which the cell number change is -93.5%. The AC50 under setting [2] is 5.17 µM [falling, single point]. Further, the AC50 under setting [1] is 9.2 µM [falling, partial curve].

For `Cc1ccc(CNC(=O)CNS(=O)(=O)c2ccc3c(c2)C(C)(C)C(=O)N3C)cc1`, the cell number change was -28.2%. Besides, the AC50 under setting [1] was 6.51 µM [falling, full curve].

Turning to `Cc1ccc(N(CC(=O)Nc2ccc(C)cc2C)S(=O)(=O)N2CCCC2)cc1`, the AC50 is, setting by setting: under setting [2], 1.3 µM [rising, partial curve]; under setting [1], 0.082 µM [rising, full curve, poor fit].

Regarding `COc1cc(C(=O)Nc2c(C)cc(C)cc2C)c([N+](=O)[O-])cc1OC`, the cell number change was -66.7%. For the same compound, under setting [2], the concentration at half-maximal activity (AC50) was 0.58 µM [falling, full curve, poor fit]. For the same compound, the AC50 under setting [1] is 4.11 µM [falling, full curve, poor fit].

Take `Cc1c2ccccc2cc(Cc2ccccc2)[n+]1C`: the cell number change is -12.4%. The concentration at half-maximal activity (AC50) under setting [1] is 0.411 µM [rising, single point].

For the compound `O=[N+]([O-])c1ccc(Nc2ccc(F)cc2)nc1`, the cell number change worked out at 40.6%. Further, the AC50 under setting [2] was 29.1 µM [rising, single point]. Moreover, the AC50 under setting [1] is 10.3 µM [falling, partial curve].

With `COc1ccc(C(=O)N/N=C/c2ccc(OC)c(CN3CCc4cc(OC)c(OC)cc4C3C)c2)cc1` (configuration not stated), the cell number change turned out to be 2.88%. Besides, the AC50 under setting [1] is 18.4 µM [rising, single point].

For `CC(C)(C)N1CC(C(=O)Nc2cccc(Cl)c2Cl)CC1=O` (configuration not stated), the cell number change is -0.313%.

Regarding `CC(C)Oc1ccc(C(=O)OC(C)C(=O)NC2CCCCC2C)cc1` (configuration not stated), the cell number change is -11.5%. Besides, the AC50 under setting [1] is 20.6 µM [rising, single point].

In the case of `Cn1nc(C(=O)Nc2ccc(S(=O)(=O)N3CCOCC3)cc2)c2ccccc2c1=O`, the cell number change turned out to be 137%. Under setting [1], the AC50 is 5.8 µM [falling, single point].

As to `CCOC(=O)N1CCN(C(=O)CN(C2CCCCC2)S(C)(=O)=O)CC1`, the cell number change is -28.2%.

In the case of `Cc1cc(Cl)ccc1OCC(=O)Nc1ccccc1NS(=O)(=O)c1cccs1`, the cell number change stood at 17.6%.

Regarding `Cc1ccccc1NC(=O)NCC1CCN(Cc2cccc(Cl)c2)CC1`, the cell number change was found to be 18.7%. Moreover, the AC50 under setting [1] was 6.51 µM [rising, partial curve, poor fit].

Take `CSc1nncc(/C(C)=N\Nc2ccccc2C)n1`: the cell number change is 72.8%. Further, the AC50 under setting [2] was 0.461 µM [rising, partial curve].

In the case of `Cn1cc(-c2cccc(C(F)(F)F)c2)cc(C#N)c1=O`, the cell number change stood at 6.31%. Moreover, the AC50 under setting [1] was 23.1 µM [falling, single point].

Regarding `Cc1ccc(NC(=S)N(CCN2CCCCC2)Cc2ccco2)cc1Cl`, the cell number change is 15.9%.

Turning to `Cc1cccc(N/N=C(\C(N)=O)C2=NC(C)(C)Cc3ccccc32)c1`, the cell number change is -71.4%. Besides, under setting [2], the AC50 is 29.1 µM [falling, single point]. For the same compound, the AC50 under setting [1] was 16.4 µM [falling, single point].

Take `CCOC(=O)C1=C(N)Oc2cc(O)ccc2C1c1ccc([N+](=O)[O-])cc1` (configuration not stated): the cell number change is -32.3%. For the same compound, the AC50 under setting [2] is 18.4 µM [falling, partial curve, poor fit].

As for `COc1cccc(OC)c1C(=O)Nc1cccc(-n2cnnn2)c1`, the cell number change is -9.54%. Moreover, under setting [1], the AC50 was 29.1 µM [falling, single point].

With `Cc1cccc(C(=O)NN/C=C/C(=O)c2ccccc2)c1`, the cell number change was -8.14%. Under setting [1], the AC50 is 16.4 µM [falling, partial curve].

For the compound `CCN(CC)CC(=O)Nc1c(C)cc(C(C)(C)C)cc1C`, the cell number change was -74.9%. In addition, the AC50 under setting [2] was 2.91 µM [falling, full curve]. Also, the AC50 under setting [1] was 29.1 µM [falling, partial curve].

With `Cc1nn(-c2ccccc2)c(N2CCCC2)c1/C=N/NC(=O)c1cc(-c2ccccn2)nc2ccccc12`, the cell number change was -41.4%. The AC50 under setting [2] was 25.9 µM [falling, single point]. For the same compound, the half-maximal activity concentration (AC50) under setting [1] was 16.4 µM [falling, partial curve].

For `N#CCOC(=O)C1c2ccccc2Oc2ccccc21`, the cell number change is -3.6%.

As to `C=CCn1c(SCC(=O)N2CC(=O)Nc3ccccc32)nc2scc(-c3cccs3)c2c1=O`, the cell number change is -5.29%. Under setting [1], the AC50 was 5.17 µM [rising, partial curve].

Regarding `Cc1cc(Cl)c(C)c(S(=O)(=O)N2CCN(C(=O)C3CCCO3)CC2)c1Cl` (configuration not stated), the cell number change came to 9.95%. Besides, under setting [1], the AC50 was 29.1 µM [falling, single point].

As for `Cc1cccc(N(CC(=O)NCCSCc2ccco2)S(=O)(=O)c2ccccc2)c1`, the cell number change is -24.5%. Under setting [1], the AC50 was 1.3 µM [falling, full curve, poor fit].

Regarding `COc1ccc(N(CC(O)Cn2cnc3ccccc32)S(=O)(=O)c2ccc(C)cc2)cc1` (configuration not stated), the cell number change is 70.6%. For the same compound, the AC50 under setting [2] was 29.1 µM [rising, single point].

As to `CC(C)(C)C(=O)CSc1ccc(S(=O)(=O)N2CCCC2)cn1`, the cell number change is 4.51%.

Regarding `O=C(CSc1nnc2c(n1)[nH]c1ccc(F)cc12)N1CCOCC1`, the AC50 under setting [1] was 4.11 µM [falling, partial curve].

As for `NC(=O)c1nsc(C(=O)N(c2ccc3c(c2)OCCO3)C(C(=O)NCC2CCCO2)c2ccc(F)cc2)c1N` (configuration not stated), the cell number change was 20.3%. Also, under setting [1], the AC50 was 2.91 µM [rising, single point].

On to `CC(C)(C)NS(=O)(=O)c1ccc(C(=O)Nc2ccc3c(c2)OCO3)cc1`, for which the cell number change was 2.1%. For the same compound, under setting [1], the AC50 was 29.1 µM [rising, single point].

Turning to `CCOc1ccccc1NC(=S)NC(=O)c1ccco1`, the cell number change was determined as 9.67%. In addition, the AC50 under setting [1] is 29.1 µM [rising, single point].

For `CCOC(=O)C1CCCN(CCSc2ccc(C)cc2)C1` (configuration not stated), the cell number change was -13.5%. The AC50 under setting [1] is 18.4 µM [rising, single point].

`O=C1CC(N2CCN(Cc3ccc4c(c3)OCO4)CC2)C(=O)N1CCc1ccccc1` (configuration not stated): the cell number change came out at 173%. Under setting [2], the AC50 is 20.6 µM [rising, single point].

For the compound `O=C(CNC(=O)c1ccc(Br)o1)NCc1ccc(Cl)cc1Cl`, the cell number change was 9.73%. Further, the AC50 under setting [1] was 5.8 µM [rising, full curve].

Regarding `Cc1nnc(N2CCCC(C(=O)NCc3ccc(OC(C)C)cc3)C2)c2nn(-c3ccccc3)c(C)c12` (configuration not stated), the cell number change is -2.28%. Further, the concentration at half-maximal activity (AC50) under setting [2] was 1.84 µM [rising, partial curve, poor fit]. In addition, under setting [1], the AC50 is 18.4 µM [falling, single point].

As for `Cc1cc2nnn(-c3nnc(-c4ccccc4)c4ccccc34)c2cc1C`, the AC50 under setting [1] is 20.6 µM [falling, partial curve].

For `CCCCOc1ccc(/C=C/C(=O)NC2=Nc3ccccc3NC(C)=C2C(=O)OCC)cc1OC`, the cell number change was found to be 19.2%.

With `O=C(NCCCn1ccnc1)C1CC(c2cccc(Br)c2)=NO1` (configuration not stated), the cell number change worked out at 7.35%.

As for `Cc1ccc(C)c(NC(=O)CSc2nncn2C)c1`, the cell number change was found to be 22%. The AC50 under setting [1] is 29.1 µM [rising, single point].

`CC(C)CN(C(=O)COC(=O)C12CC3CC(CC(O)(C3)C1)C2)C1CCS(=O)(=O)C1` (configuration not stated): the cell number change is -24.8%. Besides, the AC50 under setting [2] is 0.146 µM [falling, full curve, poor fit]. In addition, the AC50 under setting [1] is 0.326 µM [falling, full curve].

Regarding `COC(=O)C(Cc1cnc(Cl)s1)(C(=O)OC)c1ccccc1[N+](=O)[O-]`, the cell number change is 61.3%. Moreover, the AC50 under setting [2] is 25.9 µM [rising, single point].

As for `Cc1ccc(NC(=O)C(NC2CCCc3ccccc32)c2ccccc2)c([N+](=O)[O-])c1` (configuration not stated), the cell number change is 30.7%. Further, the half-maximal activity concentration (AC50) under setting [2] was 10.3 µM [rising, single point]. For the same compound, the AC50 under setting [1] was 13 µM [rising, partial curve].

On to `COc1ccc(CNC(=O)C/C(C)=N/NC(=O)C(c2ccccc2)c2ccccc2)cc1`, for which the cell number change is -10.9%.

For the compound `CC(NC(=O)NC1CCCCC1)c1ccccc1` (configuration not stated), the cell number change is -4.23%. For the same compound, the AC50 under setting [1] was 32.6 µM [falling, single point].

On to `Cc1cc(NC(=O)C2CCN(S(=O)(=O)c3cnc[nH]3)CC2)ccc1Br`, for which the cell number change was found to be 0.338%. Besides, the concentration at half-maximal activity (AC50) under setting [1] was 6.51 µM [rising, single point].

With `Cc1cc(C)cc(N2C(=O)CC(N3CCOCC3)C2=O)c1` (configuration not stated), the cell number change came out at 1.1%. Besides, under setting [1], the AC50 is 1.3 µM [falling, full curve].

With `CCCCCCc1nc2c(=O)[nH]c3ccccc3c2o1`, the cell number change came to 16.6%. Moreover, the AC50 under setting [1] was 0.366 µM [rising, single point].

On to `Cc1cc(=O)oc2cc(NC(=O)C3CCCC3)ccc12`, for which the cell number change came to 36.3%.

Regarding `CCOc1cc(/C=N/NC(=O)Cn2nc([N+](=O)[O-])cc2C)cc(Br)c1OCc1ccccc1F`, the cell number change was found to be 71.9%. The AC50 under setting [2] is 1.84 µM [rising, partial curve]. The AC50 under setting [1] is 1.3 µM [rising, partial curve].

For `O=C1CSC(c2cn(-c3ccccc3)nc2-c2ccc3c(c2)OCCO3)N1CCN1CCOCC1` (configuration not stated), the cell number change was -0.68%.

In the case of `CCOCCCNC(=O)C(NC(=O)c1cnccn1)c1ccc(C)cc1` (configuration not stated), the cell number change is -46.6%. Moreover, the AC50 under setting [2] was 8.2 µM [falling, partial curve, poor fit]. For the same compound, the AC50 under setting [1] is 29.1 µM [falling, partial curve].

Regarding `O=S(=O)([N-]c1nc2ccccc2nc1-[n+]1ccccc1)c1ccc(F)cc1`, the cell number change was -41.7%. Further, the AC50 under setting [2] is 23.1 µM [falling, single point].

As to `Cn1cc(-c2ccccc2C(=O)O)c(=O)c2cc(Cl)ccc21`, the cell number change was -29.6%. Further, under setting [1], the AC50 was 29.1 µM [falling, partial curve, poor fit].

`CCCCC(=O)Nc1cccc(-c2ccc3nncn3n2)c1`: the cell number change was 5.97%. For the same compound, the AC50 under setting [1] is 5.17 µM [falling, full curve, poor fit].

For the compound `CC(=O)N(Cc1cccs1)C1CCOC(C)(C)C1` (configuration not stated), the cell number change is -8.42%. Further, the AC50 under setting [1] is 0.651 µM [falling, single point].

Take `CN(CCO)C(=O)c1c(NC(=O)c2ccccc2)sc2c1CCCC2`: the cell number change amounted to 7.02%.

Consider `O=C(NCC1c2ccccc2CCN1C(=O)CN1C(=O)c2ccccc2C1=O)C1CCCCC1` (configuration not stated), for which the cell number change was -69.7%. Further, the AC50 under setting [2] was 20.6 µM [falling, partial curve]. The AC50 under setting [1] was 0.0461 µM [falling, full curve, poor fit].

In the case of `NNc1nc(-c2ccccc2)cc(-c2ccccc2O)n1`, the cell number change was -2.01%.
